For at least one entry, the source does not settle the construct or the ends of the probe. Negatives hold for the conditions tested.

Chains of the proteins cited; added tags and fusions are not shown. A line that says so, or that is headed by a name, gives the form on record, which may keep a tag or linker.
Ubx (isoform Ia) + Exd (Extradenticle) + HthHM (Homothorax, homeodomain-less isoform), one chain, as listed by the source, chain 1 of 3: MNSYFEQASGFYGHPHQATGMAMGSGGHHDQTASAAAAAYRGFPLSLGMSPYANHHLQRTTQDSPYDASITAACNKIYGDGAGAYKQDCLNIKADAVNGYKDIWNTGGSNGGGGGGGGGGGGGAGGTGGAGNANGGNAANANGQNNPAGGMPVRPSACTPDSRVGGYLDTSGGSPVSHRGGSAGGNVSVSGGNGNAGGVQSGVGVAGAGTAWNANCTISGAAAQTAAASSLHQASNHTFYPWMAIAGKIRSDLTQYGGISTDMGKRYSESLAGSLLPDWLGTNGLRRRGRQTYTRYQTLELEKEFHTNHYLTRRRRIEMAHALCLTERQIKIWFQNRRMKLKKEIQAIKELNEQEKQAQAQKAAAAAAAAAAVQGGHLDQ
Ubx (isoform Ia) + Exd (Extradenticle) + HthHM (Homothorax, homeodomain-less isoform), one chain, as listed by the source, chain 3 of 3: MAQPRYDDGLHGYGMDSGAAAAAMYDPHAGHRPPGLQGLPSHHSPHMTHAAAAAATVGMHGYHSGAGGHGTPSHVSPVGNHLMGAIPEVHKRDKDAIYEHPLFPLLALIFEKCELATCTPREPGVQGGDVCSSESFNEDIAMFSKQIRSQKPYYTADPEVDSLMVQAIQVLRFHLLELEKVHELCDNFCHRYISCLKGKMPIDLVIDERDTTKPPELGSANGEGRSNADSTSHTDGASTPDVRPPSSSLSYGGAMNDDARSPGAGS
Ubx (isoform Ia) + Exd (Extradenticle) + HthHM (Homothorax, homeodomain-less isoform), one chain, as listed by the source, chain 2 of 3: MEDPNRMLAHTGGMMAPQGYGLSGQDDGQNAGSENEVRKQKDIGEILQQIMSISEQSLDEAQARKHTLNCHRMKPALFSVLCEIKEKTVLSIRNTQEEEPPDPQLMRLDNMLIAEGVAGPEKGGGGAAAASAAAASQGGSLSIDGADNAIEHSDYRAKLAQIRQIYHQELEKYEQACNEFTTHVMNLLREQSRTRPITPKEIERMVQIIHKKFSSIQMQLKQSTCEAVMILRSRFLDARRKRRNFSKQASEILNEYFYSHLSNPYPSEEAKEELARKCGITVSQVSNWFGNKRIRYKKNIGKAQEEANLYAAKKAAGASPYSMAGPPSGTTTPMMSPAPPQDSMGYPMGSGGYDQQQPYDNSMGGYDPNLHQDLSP

The series deals with Ubx (isoform Ia) + Exd (Extradenticle) + HthHM (Homothorax, homeodomain-less isoform). As to the kind of experiment: EMSA. Conditions: Ubx 200 or 250 ng/lane, Exd/HthHM 150 ng/lane, EMSA as previously described (ref 47), pH and temperature not given, recombinant protein, protein details: His-tag,His-tag. (In general: In EMSA bound probe runs differently from free probe, usually more slowly.)

Turning to “CCTCGTCCCACAGCTCGAATCCCCTTCCCCACCCGGAGCAAATGCAGCCA (double strand) [abxCluster1Kill]”, the binding result (binding lost) is listed as “no binding”.

As to “CCTCGTCCCACAGCTCGAATATATTTTATAACCCGGAGCAAATGCAGCCA (double strand) [abxWT]”, the binding result is on record as “binds”.

Values taken from PMC6797233.
